Experimental data reported in patent US20240102023A1.
No constants are given. Whether binding was seen depends on the method and setting. In cells and extracts the contact can be indirect. Some binding calls cover weakened binding; strength is not graded here.

Sequences of proteins named here, by UniProt entry; tags and fusion partners are left off. Residues count along the entry.
UniProt P03372, residues 302-595: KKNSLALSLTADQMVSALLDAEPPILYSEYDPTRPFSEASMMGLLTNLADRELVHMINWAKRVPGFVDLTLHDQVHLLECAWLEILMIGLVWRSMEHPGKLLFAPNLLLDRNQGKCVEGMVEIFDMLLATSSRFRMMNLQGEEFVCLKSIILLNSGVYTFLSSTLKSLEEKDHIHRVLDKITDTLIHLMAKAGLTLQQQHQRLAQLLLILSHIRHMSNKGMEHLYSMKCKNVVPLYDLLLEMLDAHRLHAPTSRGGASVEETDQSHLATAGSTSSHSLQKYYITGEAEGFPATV

Key:
GST-ER fusion protein [1] = target: GST-ER fusion protein (UniProt P03372); test: GST pull-down, GST-ER with Hela nuclear extract in the presence of MED1SP RNA aptamer (discussion of FIG. 2D)
GST-ER fusion protein [2] = target: GST-ER fusion protein (UniProt P03372); test: GST pull-down, GST-ER with Hela nuclear extract in the presence of MED1SP RNA aptamer, Western blot (FIG. 2D)

B1: PGC-1 beta (ER co-activator, from Hela cell nuclear extract) (protein, UniProt Q86YN6 1-1023, looked up)
chain: MAGNDCGALLDEELSSFFLNYLADTQGGGSGEEQLYADFPELDLSQLDASDFDSATCFGELQWCPENSETEPNQYSPDDSELFQIDSENEALLAELTKTLDDIPEDDVGLAAFPALDGGDALSCTSASPAPSSAPPSPAPEKPSAPAPEVDELSLLQKLLLATSYPTSSSDTQKEGTAWRQAGLRSKSQRPCVKADSTQDKKAPMMQSQSRSCTELHKHLTSAQCCLQDRGLQPPCLQSPRLPAKEDKEPGEDCPSPQPAPASPRDSLALGRADPGAPVSQEDMQAMVQLIRYMHTYCLPQRKLPPQTPEPLPKACSNPSQQVRSRPWSRHHSKASWAEFSILRELLAQDVLCDVSKPYRLATPVYASLTPRSRPRPPKDSQASPGRPSSVEEVRIAASPKSTGPRPSLRPLRLEVKREVRRPARLQQQEEEDEEEEEEEEEEEKEEEEEWGRKRPGRGLPWTKLGRKLESSVCPVRRSRRLNPELGPWLTFADEPLVPSEPQGALPSLCLAPKAYDVERELGSPTDEDSGQDQQLLRGPQIPALESPCESGCGDMDEDPSCPQLPPRDSPRCLMLALSQSDPTFGKKSFEQTLTVELCGTAGLTPPTTPPYKPTEEDPFKPDIKHSLGKEIALSLPSPEGLSLKATPGAAHKLPKKHPERSELLSHLRHATAQPASQAGQKRPFSCSFGDHDYCQVLRPEGVLQRKVLRSWEPSGVHLEDWPQQGAPWAEAQAPGREEDRSCDAGAPPKDSTLLRDHEIRASLTKHFGLLETALEEEDLASCKSPEYDTVFEDSSSSSGESSFLPEEEEEEGEEEEEDDEEEDSGVSPTCSDHCPYQSPPSKANRQLCSRSRSSSGSSPCHSWSPATRRNFRCESRGPCSDRTPSIRHARKRREKAIGEGRVVYIQNLSSDMSSRELKRRFEVFGEIEECEVLTRNRRGEKYGFITYRCSEHAALSLTKGAALRKRNEPSFQLSYGGLRHFCWPRYTDYDSNSEEALPASGKSKYEAMDFDSLLKEAQQSLH
GST-ER fusion protein [1]
  binding: binds
GST-ER fusion protein [2]
  binding: binds
